For two substances, binding results are on record in PMC10698143.

Sequences of proteins named here, by UniProt entry; tags and fusion partners are left off.
UniProt P15056: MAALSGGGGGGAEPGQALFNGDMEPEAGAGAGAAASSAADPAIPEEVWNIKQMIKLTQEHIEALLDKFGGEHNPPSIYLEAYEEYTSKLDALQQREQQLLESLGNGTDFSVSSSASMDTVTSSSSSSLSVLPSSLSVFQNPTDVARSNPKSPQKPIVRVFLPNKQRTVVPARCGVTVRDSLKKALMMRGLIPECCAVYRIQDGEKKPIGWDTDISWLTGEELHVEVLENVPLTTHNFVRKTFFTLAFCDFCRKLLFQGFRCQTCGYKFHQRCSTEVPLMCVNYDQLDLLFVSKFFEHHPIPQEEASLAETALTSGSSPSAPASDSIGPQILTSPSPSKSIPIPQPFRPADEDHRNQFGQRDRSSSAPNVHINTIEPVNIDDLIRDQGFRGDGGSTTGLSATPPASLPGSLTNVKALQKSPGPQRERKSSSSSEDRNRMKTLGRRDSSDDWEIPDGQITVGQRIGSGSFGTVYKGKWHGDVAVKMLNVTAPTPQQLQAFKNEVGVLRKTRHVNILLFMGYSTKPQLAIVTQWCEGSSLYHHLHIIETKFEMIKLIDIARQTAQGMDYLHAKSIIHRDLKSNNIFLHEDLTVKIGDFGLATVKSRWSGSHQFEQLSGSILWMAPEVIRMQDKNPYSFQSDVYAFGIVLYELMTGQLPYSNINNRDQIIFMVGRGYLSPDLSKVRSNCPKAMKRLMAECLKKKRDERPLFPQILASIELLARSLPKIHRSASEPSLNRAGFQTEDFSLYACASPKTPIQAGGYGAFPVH
UniProt Q9UKI8: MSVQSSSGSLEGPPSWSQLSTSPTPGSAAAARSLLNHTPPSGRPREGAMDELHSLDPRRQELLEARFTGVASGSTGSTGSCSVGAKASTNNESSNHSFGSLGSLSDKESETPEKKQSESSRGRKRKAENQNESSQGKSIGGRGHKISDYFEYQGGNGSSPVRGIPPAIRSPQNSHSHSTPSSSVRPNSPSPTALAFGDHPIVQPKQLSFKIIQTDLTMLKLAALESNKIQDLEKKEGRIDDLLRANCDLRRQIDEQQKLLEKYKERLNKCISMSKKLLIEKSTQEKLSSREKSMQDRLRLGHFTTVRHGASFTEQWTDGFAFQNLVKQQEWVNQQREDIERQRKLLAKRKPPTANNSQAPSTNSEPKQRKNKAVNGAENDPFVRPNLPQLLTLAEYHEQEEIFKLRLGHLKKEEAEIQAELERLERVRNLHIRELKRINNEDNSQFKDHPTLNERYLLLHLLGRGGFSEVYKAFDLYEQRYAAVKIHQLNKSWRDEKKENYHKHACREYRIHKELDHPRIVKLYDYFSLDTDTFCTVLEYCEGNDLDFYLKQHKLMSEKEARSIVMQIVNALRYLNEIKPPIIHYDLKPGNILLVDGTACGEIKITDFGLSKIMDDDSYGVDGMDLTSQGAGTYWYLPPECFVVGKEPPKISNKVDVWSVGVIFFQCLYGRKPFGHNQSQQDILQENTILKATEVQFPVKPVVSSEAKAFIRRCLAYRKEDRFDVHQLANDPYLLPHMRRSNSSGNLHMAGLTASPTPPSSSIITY

These are yes or no findings as the source states them, for the method shown. In cells and extracts the contact can be indirect. These calls come from enrichment with a bait or labelling near it, and not all partners need be listed.

The target in the experiment is T1, Macrophage migration inhibitory factor (MIF) (human (endogenous in RCTE)) (UniProt P14174).
T1 sequence: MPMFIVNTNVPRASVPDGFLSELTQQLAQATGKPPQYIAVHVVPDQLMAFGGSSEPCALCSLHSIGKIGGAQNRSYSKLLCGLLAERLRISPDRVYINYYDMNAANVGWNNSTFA
Briefly: peptide or protein array + affinity purification with mass spectrometry; hits named jointly for the HuProt protein chip screen and the MIF IP-MS screen; which screen found which kinase is not told.

In the case of “BRAF (from UniProt P15056 1-766) (enzyme)”, the binding result is listed as “binds”. In the case of “TLK1 (from UniProt Q9UKI8 1-766) (enzyme)”, the binding result is “binds”.
